Measured values reported in PubChem BioAssay AID1347075 (National Center for Advancing Translational Sciences (NCATS), 2019).
In all, about 400,000 compounds went through this assay and about 5,500 (1.4%) were called active. Inconclusive means that the source gave no clear call. Such entries were picked first, then a sample of the others. Calls follow the shape of the dose curve; as a rule, active = well fitted cell-killing curve with a large enough effect; inconclusive = small, poorly fitted or top-dose-only effect, or effect the other way; inactive = flat fitted curve, though single readings scatter. Where the call is inconclusive, the potency comes from a doubtful curve fit.

assay: qHTS assay for MDR1-selective chemotherapeutics: Primary screen using the parental adenocarcinoma cell KB-3-1; details: KB-3-1 viability, CellTiter-Glo ATP luminescence, 72 h; activity change, negative = cytotoxic: at 46.1 µM (top of the series); also: nearly all actives have a fitted effect of over 60% in size
How it was run: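 Screening of KB-3-1 cells (DMEM, 10% FBS, phenol-red free) ran from lowest to highest compound concentration; after 72 h at 37 °C viability was read luminescently and curves fitted.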
% is scaled to controls: 0 for no effect and ±100 for the full control effect; potency is read from the fitted curve at half-maximal effect.

Compound	Potency	activity change, negative = cytotoxic
CC(C)CN1C(=O)C(=O)N(CC(=O)Nc2cc(Cl)ccc2Oc2ccccc2)C1=O	inconclusive: 0.184 µM [rising, full curve]	–
CC1CCCN(c2ncnc3c2nnn3C)C1 (configuration not stated)	inactive	–
Cc1c(Cc2ccc3c(c2)OCO3)sc(NC(=O)c2cccc3ccccc23)c1C(N)=O	inconclusive: 18.4 µM [cytotoxic, single point]	–
CN(c1ccc(O)cc1)S(=O)(=O)c1ccc2ccccc2c1	inconclusive: 29.1 µM [cytotoxic, single point]	–
CCCCCCn1c(=O)n2n(c1=O)C[C@]1(OC(=O)Nc3cccs3)CN(S(=O)(=O)c3ccc(C)cc3)C[C@]1(O)C2	inconclusive: 20.6 µM [cytotoxic, single point]	–
CC(=O)c1cccc(-c2ccnc3c2CC(C(=O)Nc2cccc(NS(C)(=O)=O)c2)O3)c1 (configuration not stated)	inconclusive: 29.1 µM [cytotoxic, single point]	–
CCN(CC)c1ncnc2c1cnn2Cc1ccc(Cl)cc1	inactive	–
CN(CC(=O)Nc1cccc(F)c1)C(=O)c1cccc(S(=O)(=O)N2CCN(c3ccccc3)CC2)c1	inconclusive: 20.6 µM [cytotoxic, single point]	–
COc1ccc(CNC(=O)Cc2ccc(NC(=O)N3CCCCc4ccccc43)cc2)cc1	inconclusive: 20.6 µM [cytotoxic, single point]	–
O=C1Cc2c([nH]c3ccc([N+](=O)[O-])cc23)-c2ccccc2N1	active: 0.82 µM	–
COc1ccccc1C1=CC(=O)C[C@H](c2ccc(Cl)cc2)C1	inactive	–
Cc1noc(C)c1C(=O)Nc1nc2ccc(F)cc2s1	inconclusive: 14.6 µM [cytotoxic, partial curve, poor fit]	–
COc1ccccc1CCNC(=O)c1cnccn1	inconclusive: 29.1 µM [cytotoxic, single point]	–
Brc1ccccc1OCCCN1CCCCCC1	inconclusive: 3.26 µM [cytotoxic, partial curve, poor fit]	–
O=C(c1ccncc1)N1CCN(C2CCCCC2)CC1	inactive	–
O=S(=O)(NCCN1CCCC1)c1ccc(C(F)(F)F)cc1	–	inconclusive: 5.51%
COc1ccc(C2CC(c3ccccc3Cl)=NN2c2ccc(S(N)(=O)=O)cc2)cc1 (configuration not stated)	inactive	–
CCCCc1ccc(NC(=O)Nc2cc(C)nn2C)cc1	active: 6.51 µM	–
Cc1cc(-c2ccc(C)c(S(=O)(=O)NCC3CCN(Cc4cccc(F)c4)CC3)c2)on1	inconclusive: 20.6 µM [cytotoxic, single point]	–
COc1ccc(N(CC(=O)Nc2cc(Cl)ccc2OC)S(=O)(=O)c2c(C)[nH]c(=O)[nH]c2=O)cc1	–	inconclusive: -48.1%
CNC(=O)c1c(NC(=O)CCS(=O)(=O)c2ccccc2)sc(C)c1C	inactive	–
CCOC(=O)CCCC(=O)Nc1ncnc2c1C(c1ccccc1)c1c(ccc3ccccc13)O2 (configuration not stated)	–	inconclusive: -31.4% [cytotoxic]
COc1ccc(CCNC(=O)Cc2ccccc2)cc1OC	inactive	–
COc1cccc(CNC(=O)Nc2ccc3c(c2)N(C)C(=O)c2ccccc2S3)c1	inconclusive: 29.1 µM [cytotoxic, single point]	–

Arranged by formula weight (falling): part of the list above
Compound	Potency	activity change, negative = cytotoxic
Cc1cc(-c2ccc(C)c(S(=O)(=O)NCC3CCN(Cc4cccc(F)c4)CC3)c2)on1	inconclusive: 20.6 µM [cytotoxic, single point]	–
COc1ccc(CNC(=O)Cc2ccc(NC(=O)N3CCCCc4ccccc43)cc2)cc1	inconclusive: 20.6 µM [cytotoxic, single point]	–
CNC(=O)c1c(NC(=O)CCS(=O)(=O)c2ccccc2)sc(C)c1C	inactive	–

(more compounds)

Compound	Potency	activity change, negative = cytotoxic
Cc1cc(C)cc(C(=O)NCC(=O)OCC(=O)NCC(F)(F)F)c1	inactive	–
Cc1ccc(C(=O)c2cc([N+](=O)[O-])ccc2N2CCOCC2)c(C)c1	active: 1.03 µM	–
COc1ccc(/C=C/C(=O)N(C)C2CCCCC2)cc1Br	inconclusive: 18.4 µM [rising, single point]	–
Nc1nc(SCc2ccccc2Cl)[nH]c(=O)c1-c1ccccc1	inconclusive: 35.5 µM [rising, partial curve, poor fit]	–
COC(=O)/C=C1\SC(N)=NC1=O	inactive	–
Cc1cc(/C=C2\Sc3ccccc3N2C)cc(C)[n+]1CC1CCCO1 (configuration not stated)	active: 0.651 µM	–
CCOc1ccc(NC(=O)CSc2nc(C)cc(C)n2)cc1	inactive	–
CC(=O)Nc1ccc(NC(=O)C(C)Oc2ccc(C)nc2[N+](=O)[O-])cc1 (configuration not stated)	inactive	–
CCCC(=NCCc1c(C)[nH]c2ccccc12)C1=C(O)CC(c2ccccc2)CC1=O (configuration not stated)	active: 7.31 µM	–
Cc1ccc2c(c1)C(=O)C(=O)N2Cc1ccc(OC(C)C)cc1	inconclusive: 29.1 µM [cytotoxic, single point]	–
CCCn1c(SCC(=O)Nc2ccccc2Oc2ccccc2)n[nH]c1=O	inconclusive: 14.6 µM [cytotoxic, single point]	–
COc1ccc(/C=C2\SC(=S)N(CCC(=O)NCCCN3CCOCC3)C2=O)cc1	inconclusive: 29.1 µM [cytotoxic, single point]	–
COc1ccc(C2CC(c3cccs3)=NN2c2nc(C)c(C(C)=O)s2)cc1OC (configuration not stated)	inconclusive: 32.6 µM [cytotoxic, single point]	–
CCOc1ccc(-c2cn3c(n2)sc2cc(C(=O)NCCCN(CC)CC)ccc23)cc1	inconclusive: 20.6 µM [cytotoxic, partial curve, poor fit]	–
Cc1cc(N2CCN(C)CC2)nc2ccc(NC(=O)c3ccc4c(c3)OCO4)cc12	active: 7.31 µM	–
COc1ccc(/C=C/C(=O)c2cc(F)ccc2OC(=O)c2ccccc2)cc1OC	inconclusive: 29.1 µM [cytotoxic, partial curve, poor fit]	–
Cc1ccc(Cl)c(NC(=O)CCl)c1Cl	active: 23.1 µM	–
COc1ccc(C(=O)Nc2ccc(C)c(S(=O)(=O)N3CCCCCC3)c2)cc1	inconclusive: 23.1 µM [cytotoxic, single point]	–
CCC(C)[C@H](NC(=O)N1CC(=O)Nc2ccccc21)C(=O)N[C@@H](C(=O)O)c1ccccc1 (some centres not stated)	inactive	–
Cc1ccc(C(=O)CSc2cnc3ccccc3n2)cc1C	inconclusive: 16.4 µM [rising, partial curve, poor fit]	–
O=C(Nc1ccc(N2CCCC2)c(Cl)c1)c1ccc([N+](=O)[O-])o1	inconclusive: 29.1 µM [cytotoxic, single point]	–
COc1ccc(CCN2C(=O)NC(NC(=O)CCc3ccccc3)(C(F)(F)F)C2=O)cc1OC (configuration not stated)	inactive	–
C=CCOc1c(Cl)cc(C(=S)N2CCCC2)cc1OCC	active: 6.51 µM	–
COc1cc(/C=C/c2ccc3cccc(O)c3n2)cc(Br)c1OC	active: 14.6 µM	–

Compound	Potency	activity change, negative = cytotoxic
CN(NC(=O)c1cccc(Cl)c1)c1nc(-c2ccccc2)nnc1C(F)(F)F	active: 23.1 µM	–
Cc1ccc(S(=O)(=O)N(CC(=O)N2CCN(c3ccccc3F)CC2)C2CCCCC2)cc1	inconclusive: 29.1 µM [cytotoxic, single point]	–
Cc1cc(-c2nn3c(-c4ccccc4)nnc3s2)c2ccccc2n1	inconclusive: 5.8 µM [rising, partial curve, poor fit]	–
CCCCn1c(N)c(N(CC(C)C)C(=O)c2cc(-c3ccc(F)cc3)nc3ccccc23)c(=O)[nH]c1=O	inconclusive: 29.1 µM [cytotoxic, single point]	–
CC(C)Oc1cc(F)ccc1-c1cc(C(=O)NCc2ccccc2)[nH]n1	inactive	–
COc1ccc(N=Nc2c(N)nn(C)c2N)cc1	inactive	–
CC(=O)N1CCc2c(sc(NC(=O)C3CCCN3S(=O)(=O)c3cccs3)c2C(N)=O)C1 (configuration not stated)	inconclusive: 0.651 µM [cytotoxic, full curve]	–
CCOc1ccc(S(=O)(=O)N2CC(=O)Nc3ccccc32)cc1	inconclusive: 16.4 µM [cytotoxic, single point]	–
COC(=O)c1ccc(Nc2ccc3nonc3c2[N+](=O)[O-])cc1	inactive	–
Cc1cccc(CSC2=NCCN2S(=O)(=O)c2ccc(F)cc2)c1	inactive	–
CCOC(=O)c1c(C)n(C)c2ccc(OCC(O)CN(CC)CC)cc12 (configuration not stated)	inactive	–
Cc1ccc(OCCn2c(NC(=O)c3ccco3)nc3ccccc32)cc1	inconclusive: 18.4 µM [cytotoxic, single point]	–
Cc1ccnc2nc(C(=O)N3CCN(c4ccc(F)cc4)CC3)nn12	inconclusive: 25.9 µM [rising, partial curve]	–
O=S(=O)(c1ccc(F)cc1)N1CCC(n2c(C(F)(F)F)nc3cccnc32)CC1	inactive	–
COc1ccc(C(=O)c2oc3ccccc3c2NC(C)=O)cc1	inconclusive: 20.6 µM [cytotoxic, single point]	–
O=C(NCc1ccccc1)c1cc(C2CCCN(C(=O)C3CCCCC3)C2)on1 (configuration not stated)	inactive	–
COc1ccc(NC(=O)CSc2c3c(nc4ccccc24)CCC3)c(OC)c1	inactive	–
CCOC(=O)CCCNC(=O)CSc1nc2ccc(OCC)cc2[nH]1	inconclusive: 16.4 µM [rising, single point]	–
Cc1oc2ccc(OCC(N)=O)cc2c1C(=O)OC(C)C	active: 23.1 µM	–
COC(=O)[C@@H]1C[C@]2(OC(=O)c3ccccc3)C=CC(=O)C[C@@H]2N1C(=O)OCc1ccccc1	inconclusive: 29.1 µM [cytotoxic, single point]	–
CCOC(=O)c1oc2ccc(S(=O)(=O)Nc3ccc4c(c3)n(C)c(=O)n4C)cc2c1C	inconclusive: 16.4 µM [cytotoxic, single point]	–
CN(Cc1ccc(F)cc1)S(=O)(=O)c1nnc(NC(=O)c2ccc(F)cc2)s1	inconclusive: 14.6 µM [cytotoxic, single point]	–
Cc1cc(C(=O)COC(=O)c2ccc(O)cc2O)c(C)n1-c1ccccc1	inconclusive: 29.1 µM [cytotoxic, single point]	–
COc1cc(CCC(=O)OCC(=O)Nc2c(F)cccc2F)cc(OC)c1OC	inconclusive: 1.84 µM [rising, partial curve, poor fit]	–
